# Reference: patent US7517840B2, “Optimized perfumery for rinse-off products” (Givaudan Fragrances Corporation, priority 2005, dated 2009)
# Structures can show the parent of a compound that is named as a salt. Some of these results come from one statement about several compounds together.
# Assay: Calculated pseudo-acceleration (Γ) of odorants in water, water-air and air
# Settings: Table 3
# From the text: In the analysis of the volatility of odorants, several variables are found to be important. First, the vapor pressure of the odorant is an important measure of its volatility. The product of the odorant's activity coefficient γ in the partition its mole fraction X and its pure vapor pressure value Pv, gives the odorant's relative vapor pressure. A second important factor for volatility is the diffusivity D12 of the odorant in the considered media: water, vapor phase and subsequently air.
# Other important variables to consider are the molecular weight Mw, of the odorant and its density in the partition ρl and in the solvent vapor state ρv. The final variable to consider is an energy parameter in the partition state. […]
# The five variables D12, Pv, Mw, ρv and ε12 and the three dimensional variables indicate that there can be 5−3=2 dimensional variables which describe Newton's law. The easiest separation is to break the acceleration vector into 2 dimensional quantities: a frequency or first order rate constant (1/time) and a velocity (distance/time) term. […]
# The first order rate constant can be formed from the variables Mw, D12 and ε12. […] A molecular area calculated from the liquid molar volume could represent this area. […]
structure (smiles),measurement,value
CCOC=O [ethyl formate],release category by Γ,"Flash Release (Flash release odorants are considered by the authors to have acceleration, Γ values above 900 cm/sec^2)"
